Measured values taken from the supplement of paper PMC8007513.
This is one part of the list. Many values rest on one well or one pass, so single values are uncertain.

System: Saccharomyces cerevisiae BY4743
Assay: growth (OD600) with compound + IPBC relative to untreated control; higher = less growth inhibition
Conditions: compound concentration: 133 uM; IPBC concentration: 0.5 ug/ml; 20 h
Method: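 NMCCC compounds (133 uM) combined with IPBC (0.5 ug/ml) against Saccharomyces cerevisiae BY4743 in YPD, 96-well plates. Growth was read as OD600 at 20 h and expressed as % of the untreated control. Single pass.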

COc1ccc(F)cc1-c1csc(Cc2csc(C)n2)n1 + CCCCNC(=O)OCC#CI [3-iodo-2-propynyl butylcarbamate (IPBC)]
growth: 97.7%

CCOC(=O)c1c(C)c(C(=O)NCc2ccc3c(c2)OCO3)c(C)n1CC + CCCCNC(=O)OCC#CI [3-iodo-2-propynyl butylcarbamate (IPBC)]
growth: 89.7%

Cn1cc(S(=O)(=O)N2CCOCC2)cc1C(=O)NCc1ccc(C(F)(F)F)cc1 + CCCCNC(=O)OCC#CI [3-iodo-2-propynyl butylcarbamate (IPBC)]
growth: 115%

N#Cc1ccsc1NC(=O)CCSc1nnnn1C1CC1 + CCCCNC(=O)OCC#CI [3-iodo-2-propynyl butylcarbamate (IPBC)]
growth: 93.8%

CSCCC(NC(=O)c1ccc(C(C)(C)C)cc1)C(=O)Nc1ccc(N2CCOCC2)cc1 (stereo unspecified) + CCCCNC(=O)OCC#CI [3-iodo-2-propynyl butylcarbamate (IPBC)]
growth: 95.4%

O=C(CSc1ccc(-c2cccs2)nn1)NC1CCCCC1 + CCCCNC(=O)OCC#CI [3-iodo-2-propynyl butylcarbamate (IPBC)]
growth: 95.2%

COc1cc(Br)c(OC)c(C(=O)NCc2c(C)nn(-c3ccccc3)c2C)c1 + CCCCNC(=O)OCC#CI [3-iodo-2-propynyl butylcarbamate (IPBC)]
growth: 94.9%

CCOC(=O)\C1=C(/CN(CC)CC)N(C)C(=O)NC1C2=CC=CC=C2 (stereo unspecified) + CCCCNC(=O)OCC#CI [3-iodo-2-propynyl butylcarbamate (IPBC)]
growth: 85.1%

CC(C)N(Cc1ccccc1)Cc1nc(O)c2sccc2n1 + CCCCNC(=O)OCC#CI [3-iodo-2-propynyl butylcarbamate (IPBC)]
growth: 113%

CCOC(=O)c1c(NC(=O)c2ccccc2)sc(C(C)=O)c1-c1ccccc1 + CCCCNC(=O)OCC#CI [3-iodo-2-propynyl butylcarbamate (IPBC)]
growth: 85%

CC1=C(Cl)C=CC=C1NC(=O)C\C2=N\[S](=O)(=O)C3=CC=CC=C3N2 + CCCCNC(=O)OCC#CI [3-iodo-2-propynyl butylcarbamate (IPBC)]
growth: 102%

CCSc1ccccc1C(=O)Nc1ccc(S(=O)(=O)NCC(F)(F)F)cc1 + CCCCNC(=O)OCC#CI [3-iodo-2-propynyl butylcarbamate (IPBC)]
growth: 93.5%

CN(C)c1ccc(CN(Cc2ccco2)C(=O)COc2ccc(F)cc2)cc1 + CCCCNC(=O)OCC#CI [3-iodo-2-propynyl butylcarbamate (IPBC)]
growth: 81.6%

Cc1ccc(NC(=O)C(Sc2nnc(C)n2C)c2ccccc2)cc1 (stereo unspecified) + CCCCNC(=O)OCC#CI [3-iodo-2-propynyl butylcarbamate (IPBC)]
growth: 108%

Cc1cc(F)ccc1-n1nnc(C(=O)OCc2ccc(F)cc2)c1C + CCCCNC(=O)OCC#CI [3-iodo-2-propynyl butylcarbamate (IPBC)]
growth: 89.1%

CCN(CC)S(=O)(=O)c1ccc(OC)c(NC(=O)CS(=O)(=O)c2ccc(Cl)cc2)c1 + CCCCNC(=O)OCC#CI [3-iodo-2-propynyl butylcarbamate (IPBC)]
growth: 106%

COc1cc(Br)c(CC(=O)OCC(=O)N2CCNC2=O)cc1OC + CCCCNC(=O)OCC#CI [3-iodo-2-propynyl butylcarbamate (IPBC)]
growth: 100%

COC1=CC=CC2=C1N(CC3=CC=CC(=C3)Cl)\C=C(C#N)/C2=O + CCCCNC(=O)OCC#CI [3-iodo-2-propynyl butylcarbamate (IPBC)]
growth: 100%

COC(=O)c1cc(S(=O)(=O)NCCc2sccc2C)c[nH]1 + CCCCNC(=O)OCC#CI [3-iodo-2-propynyl butylcarbamate (IPBC)]
growth: 111%

CCOC(=O)C1CCN(C(=O)CCS(=O)(=O)c2ccc3c(c2)CC(C)N3C(=O)CC)CC1 (stereo unspecified) + CCCCNC(=O)OCC#CI [3-iodo-2-propynyl butylcarbamate (IPBC)]
growth: 88.7%

CCOC(=O)c1[nH]c(C)c(C(=O)Nc2cccc(Cl)c2C)c1C + CCCCNC(=O)OCC#CI [3-iodo-2-propynyl butylcarbamate (IPBC)]
growth: 93.6%
